Results taken from PMC4236683.
No constants are given. Whether binding was seen depends on the method and setting. In cells and extracts the contact can be indirect. Some binding calls cover weakened binding; strength is not graded here. Sequences can lack the tags named with a protein.

Biological target: T1, 6xMyc-Sema5A^ΔTSR-GFP (rat) (UniProt D3ZTD8)
T1 sequence: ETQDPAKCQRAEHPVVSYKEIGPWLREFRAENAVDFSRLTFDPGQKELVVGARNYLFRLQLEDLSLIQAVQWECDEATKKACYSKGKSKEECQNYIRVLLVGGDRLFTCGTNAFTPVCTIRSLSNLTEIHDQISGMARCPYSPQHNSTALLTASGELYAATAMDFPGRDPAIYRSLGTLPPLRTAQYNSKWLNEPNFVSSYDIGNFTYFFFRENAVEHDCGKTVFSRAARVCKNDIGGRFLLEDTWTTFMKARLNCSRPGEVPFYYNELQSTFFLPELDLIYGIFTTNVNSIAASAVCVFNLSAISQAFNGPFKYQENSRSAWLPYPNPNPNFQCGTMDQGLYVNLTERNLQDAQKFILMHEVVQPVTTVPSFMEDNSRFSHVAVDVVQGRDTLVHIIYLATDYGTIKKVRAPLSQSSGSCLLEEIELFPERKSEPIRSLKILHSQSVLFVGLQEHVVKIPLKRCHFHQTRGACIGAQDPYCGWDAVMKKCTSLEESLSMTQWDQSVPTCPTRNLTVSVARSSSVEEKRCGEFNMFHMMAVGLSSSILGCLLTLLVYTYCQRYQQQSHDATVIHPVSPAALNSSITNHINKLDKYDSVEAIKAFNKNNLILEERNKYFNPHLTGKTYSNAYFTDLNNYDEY
Assay: co-IP; HEK293T cells co-transfected (low-density cultures); lysis in 20 mM TrisHCl pH 7.5, 150 mM NaCl, 1% CHAPS, 1% Triton X-100; IP with mouse anti-GFP, anti-myc immunoblot

B1: PlexA2 lacking the cytoplasmic domain (PlexA2^Δcyt) (receptor, UniProt P70207 35-1280)
chain: MPQYSTFHSENRDWTFNHLTVHRRTGAVYVGAINRVYKLTGNLTIQVAHKTGPEEDNKACYPPLIVQPCSEVLTLTNNVNKLLIIDYSENRLLACGSLYQGVCKLLRLDDLFILVEPSHKKEHYLSSVNKTGTMYGVIVRSEGEDGKLFIGTAVDGKQDYFPTLSSRKLPRDPESSAMLDYELHSDFVSSLIKIPSDTLALVSHFDIFYIYGFASGGFVYFLTVQPETPDGMAINSAGDLFYTSRIVRLCKDDPKFHSYVSLPFGCTRAGVEYRLLQAAYLAKPGEALAQAFNISSDEDVLFAIFSKGQKQYHHPPDDSALCAFPIRAINLQIKERLQSCYHGEGNLELNWLLGKDVQCTKAPVPIDDNFCGLDINQPLGGSTPVEGLTLYTTSRDRLTSVASYVYNGYSVVFVGTKSGKLKKIRADGPPHGGVQYEMVSVFKDGSPILRDMAFSINQLYLYVMSERQVTRVPVESCEQYTTCGECLSSGDPHCGWCALHNMCSRRDKCQRAWEANRFAASISQCMSLEVHPNSISVSDHSRLLSLVVNDAPNLSEGIACAFGNLTEVEGQVSGSQVICISPGPKDVPVIPLDQDWFGLELQLRSKETGKIFVSTEFKFYNCSAHQLCLSCVNSAFRCHWCKYRNLCTHDPTTCSFQEGRINVSEDCPQLVPTEEILIPVGEVKPITLKARNLPQPQSGQRGYECVLSIQGAVHRVPALRFNSSSVQCQNSSYQYDGMDISNLAVDFAVVWNGNFIIDNPQDLKVHLYKCAAQRESCGLCLKADHKFECGWCSGERRCTLHQHCPSTSSPWLDWSSHNVKCSNPQITEILTVSGPPEGGTRVTIHGVNLGLDFSEIAHHVQVAGVPCTPIPGEYIIAEQIVCEMGHAVIGTTSGPVRLCIGECKPEFMTKSHQQYTFVNPSVLSLSPIRGPESGGTMVTITGHYLGAGSSVAVYLGNQTCEFYGRSMNEIVCVSPPSSNGLGPVPVSVSVDRARVDSSLQFEYIDDPRVQRIEPEWSITSGHTPLTITGFNLDVIQEPRVRVKFNGKESVNVCTVVNTTTLTCLAPSLTSDYRPGLDTVERPDEFGFLFNNVQSLLIYNDTKFIYYPNPTFELLSPTGILDQKPGSPIILKGKNLCPPASGGAKLNYTVMIGETPCTVTVSETQLLCEPPNLTGQHKVMVHVGGMVFSPGSVSVISDSLLTLPAIISIAAGGSLLLIIVIIVLIAYKRKSRENDLTLKRLQMQMDN
binding: binds
